Reference: patent US20140256918A1 (published 2014)
These are yes or no findings as the source states them, for the method shown. Some entries that bind do so weakly or less than the wild type.

Sequences of proteins named here, by UniProt entry; tags and fusion partners are left off. A change or cut given only in a name is not applied to a line headed by its entry. A line that says so, or that is headed by a name, gives the form on record, which may keep a tag or linker.
C-terminal 6×His-tagged hCXCR5 whole receptor protein (P32302, form named): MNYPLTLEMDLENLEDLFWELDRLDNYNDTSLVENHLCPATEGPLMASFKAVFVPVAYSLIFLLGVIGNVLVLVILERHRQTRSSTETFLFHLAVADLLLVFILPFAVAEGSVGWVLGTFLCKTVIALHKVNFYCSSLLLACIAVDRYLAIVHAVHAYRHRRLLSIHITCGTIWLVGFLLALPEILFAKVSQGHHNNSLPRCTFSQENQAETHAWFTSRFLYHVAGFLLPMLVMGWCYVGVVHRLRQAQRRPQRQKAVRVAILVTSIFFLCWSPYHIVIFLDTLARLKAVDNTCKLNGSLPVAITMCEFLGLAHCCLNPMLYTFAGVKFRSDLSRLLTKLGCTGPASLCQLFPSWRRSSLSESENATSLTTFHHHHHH

Biological target: C-terminal 6×His-tagged hCXCR5 whole receptor protein (human) (UniProt P32302)
Test: SPR (Biacore), whole receptor captured and crosslinked on NTA chip

binding: binds
B1: CXCL13 (ligand, UniProt O43927 23-109, looked up)
chain: VLEVYYTSLRCRCVQESSVFIPRRFIDRIQILPRGNGCPRKEIIVWKKNKSIVCVDPQAEWIQRMMEVLRKRSSSTLPVPVFKRKIP
notes: also called hCXCR5 ligand
